Data: US20100222401A1, “COMPOSITIONS AND METHODS FOR TREATING PATHOLOGIC ANGIOGENESIS AND VASCULAR PERMEABILITY” (priority 2008, published 2010)
These are yes or no findings as the source states them, for the method shown. For part of these data: In cells and extracts the contact can be indirect. Some binding calls cover weakened binding; strength is not graded here. Tags and fused reporters may be left off the sequences shown. One block for each molecule: values may come before it.

Sequences of proteins named here, by UniProt entry; tags and fusion partners are left off. A change or cut given only in a name is not applied to a line headed by its entry.
UniProt Q62219: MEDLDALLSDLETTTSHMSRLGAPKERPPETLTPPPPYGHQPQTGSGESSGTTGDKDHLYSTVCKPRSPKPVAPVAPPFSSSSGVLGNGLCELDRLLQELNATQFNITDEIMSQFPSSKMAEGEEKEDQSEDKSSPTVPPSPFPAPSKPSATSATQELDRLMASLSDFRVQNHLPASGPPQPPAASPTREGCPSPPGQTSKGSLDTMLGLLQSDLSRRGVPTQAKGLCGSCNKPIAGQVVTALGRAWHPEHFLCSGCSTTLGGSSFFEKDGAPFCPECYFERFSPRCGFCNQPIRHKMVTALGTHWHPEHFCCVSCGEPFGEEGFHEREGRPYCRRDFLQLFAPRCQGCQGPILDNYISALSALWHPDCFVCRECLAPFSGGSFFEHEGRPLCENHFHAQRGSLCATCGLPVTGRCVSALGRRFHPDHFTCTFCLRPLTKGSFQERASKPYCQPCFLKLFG
UniProt Q8VI36: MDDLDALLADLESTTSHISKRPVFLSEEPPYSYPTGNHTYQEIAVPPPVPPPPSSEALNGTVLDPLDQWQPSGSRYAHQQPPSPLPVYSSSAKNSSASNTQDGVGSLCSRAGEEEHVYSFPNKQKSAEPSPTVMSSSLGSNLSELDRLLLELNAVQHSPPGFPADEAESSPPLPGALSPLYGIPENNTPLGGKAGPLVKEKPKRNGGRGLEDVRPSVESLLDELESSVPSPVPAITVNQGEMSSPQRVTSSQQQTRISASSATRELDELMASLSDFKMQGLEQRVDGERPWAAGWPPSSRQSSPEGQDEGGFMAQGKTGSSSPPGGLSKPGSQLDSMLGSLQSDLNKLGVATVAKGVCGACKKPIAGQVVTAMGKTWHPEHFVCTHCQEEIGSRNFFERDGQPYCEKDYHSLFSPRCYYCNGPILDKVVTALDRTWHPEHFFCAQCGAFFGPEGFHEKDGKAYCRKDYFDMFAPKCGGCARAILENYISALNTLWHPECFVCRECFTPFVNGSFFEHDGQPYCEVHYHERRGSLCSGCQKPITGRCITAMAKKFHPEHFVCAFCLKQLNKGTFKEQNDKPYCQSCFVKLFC

Columns and labels:
[1] = target: T1, Robo4 cytoplasmic tail-HA (UniProt Q8C310); assay: co-immunoprecipitation (anti-HA IP, anti-V5 blot), HEK 293 cells
T1 sequence (looked up): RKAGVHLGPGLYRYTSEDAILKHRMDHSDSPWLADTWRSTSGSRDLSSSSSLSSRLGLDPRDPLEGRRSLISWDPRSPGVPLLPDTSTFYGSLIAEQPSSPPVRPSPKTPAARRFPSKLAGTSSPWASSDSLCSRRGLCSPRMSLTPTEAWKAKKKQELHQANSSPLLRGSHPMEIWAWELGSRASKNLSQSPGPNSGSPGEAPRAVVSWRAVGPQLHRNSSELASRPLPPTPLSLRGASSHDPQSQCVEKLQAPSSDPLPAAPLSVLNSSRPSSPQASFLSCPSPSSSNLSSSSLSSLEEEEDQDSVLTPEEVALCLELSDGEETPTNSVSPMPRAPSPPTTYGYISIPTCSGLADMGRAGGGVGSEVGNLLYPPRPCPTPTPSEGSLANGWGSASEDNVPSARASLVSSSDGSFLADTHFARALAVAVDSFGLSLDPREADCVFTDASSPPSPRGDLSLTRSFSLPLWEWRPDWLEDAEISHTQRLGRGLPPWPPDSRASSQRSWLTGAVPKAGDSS

[2] = target: T2, Robo4-HA (full length Robo4 tagged with a HA epitope) (UniProt Q8C310); assay: immunoprecipitation from combined HEK cell lysates (anti-HA IP, anti-myc blot)
T2 sequence (looked up): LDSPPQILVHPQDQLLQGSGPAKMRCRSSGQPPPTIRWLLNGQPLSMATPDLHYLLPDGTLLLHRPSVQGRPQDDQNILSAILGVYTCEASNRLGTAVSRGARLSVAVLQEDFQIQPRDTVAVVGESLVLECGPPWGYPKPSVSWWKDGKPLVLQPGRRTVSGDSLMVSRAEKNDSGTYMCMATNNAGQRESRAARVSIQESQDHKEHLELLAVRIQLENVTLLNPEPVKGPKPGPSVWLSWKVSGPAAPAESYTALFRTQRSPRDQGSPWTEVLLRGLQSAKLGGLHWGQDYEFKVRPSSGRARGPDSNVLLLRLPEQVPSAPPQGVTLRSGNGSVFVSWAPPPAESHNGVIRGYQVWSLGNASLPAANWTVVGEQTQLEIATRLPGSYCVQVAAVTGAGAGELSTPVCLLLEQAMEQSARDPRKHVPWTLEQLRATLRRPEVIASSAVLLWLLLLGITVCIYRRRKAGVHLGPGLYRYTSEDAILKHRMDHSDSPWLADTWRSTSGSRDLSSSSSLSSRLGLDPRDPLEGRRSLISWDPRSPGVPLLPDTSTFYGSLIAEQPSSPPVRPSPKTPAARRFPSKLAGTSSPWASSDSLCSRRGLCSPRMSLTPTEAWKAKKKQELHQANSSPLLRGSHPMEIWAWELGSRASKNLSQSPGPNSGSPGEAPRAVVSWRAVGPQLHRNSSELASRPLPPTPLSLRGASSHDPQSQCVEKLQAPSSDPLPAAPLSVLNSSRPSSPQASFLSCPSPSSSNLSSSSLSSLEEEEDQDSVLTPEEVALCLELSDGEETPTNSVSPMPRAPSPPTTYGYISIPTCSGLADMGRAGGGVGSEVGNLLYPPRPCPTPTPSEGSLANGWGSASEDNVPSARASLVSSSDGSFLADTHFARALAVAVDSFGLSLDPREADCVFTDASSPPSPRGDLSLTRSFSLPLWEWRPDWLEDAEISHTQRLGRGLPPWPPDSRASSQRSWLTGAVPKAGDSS

[3] = target: T2, Robo4-HA (full length Robo4 tagged with a HA epitope); assay: cell binding, Slit-myc conditioned medium on stable Robo4-HEK cells, anti-myc immunofluorescence
[4] = target: T3, NRobo4-HA (N-terminal soluble ectodomain of Robo4 tagged with the HA epitope) (UniProt Q8C310); assay: immunoprecipitation from combined conditioned media (anti-HA IP, anti-myc blot)
T3 sequence (looked up): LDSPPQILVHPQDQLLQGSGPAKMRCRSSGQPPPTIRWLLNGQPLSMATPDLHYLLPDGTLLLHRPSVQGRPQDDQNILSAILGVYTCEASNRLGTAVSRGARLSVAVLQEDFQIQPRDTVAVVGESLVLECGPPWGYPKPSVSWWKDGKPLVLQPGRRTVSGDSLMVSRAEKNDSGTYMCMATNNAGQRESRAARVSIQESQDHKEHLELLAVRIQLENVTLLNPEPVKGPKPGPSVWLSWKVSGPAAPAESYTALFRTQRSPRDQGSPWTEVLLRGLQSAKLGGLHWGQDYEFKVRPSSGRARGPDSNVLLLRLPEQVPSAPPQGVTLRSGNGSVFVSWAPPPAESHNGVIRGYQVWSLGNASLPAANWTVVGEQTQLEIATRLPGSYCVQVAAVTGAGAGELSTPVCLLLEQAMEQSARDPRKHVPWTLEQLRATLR

binding [1]: binds
Molecule: Hic-5-V5 (from UniProt Q62219 1-461)

binding [1]: binds
Molecule: paxillin-Lim (from UniProt Q8VI36 356-591)

binding [1]: binds
Molecule: paxillin-V5 (from UniProt Q8VI36 1-591)

binding [2]: binds
binding [3]: binds
binding [4]: binds
B1: Slit-myc (Slit tagged with a myc epitope) (ligand, UniProt O94813 31-1529, looked up, not shown: small tags and cut ends)
chain: QCSCSGSTVDCHGLALRSVPRNIPRNTERLDLNGNNITRITKTDFAGLRHLRVLQLMENKISTIERGAFQDLKELERLRLNRNHLQLFPELLFLGTAKLYRLDLSENQIQAIPRKAFRGAVDIKNLQLDYNQISCIEDGAFRALRDLEVLTLNNNNITRLSVASFNHMPKLRTFRLHSNNLYCDCHLAWLSDWLRQRPRVGLYTQCMGPSHLRGHNVAEVQKREFVCSGHQSFMAPSCSVLHCPAACTCSNNIVDCRGKGLTEIPTNLPETITEIRLEQNTIKVIPPGAFSPYKKLRRIDLSNNQISELAPDAFQGLRSLNSLVLYGNKITELPKSLFEGLFSLQLLLLNANKINCLRVDAFQDLHNLNLLSLYDNKLQTIAKGTFSPLRAIQTMHLAQNPFICDCHLKWLADYLHTNPIETSGARCTSPRRLANKRIGQIKSKKFRCSAKEQYFIPGTEDYRSKLSGDCFADLACPEKCRCEGTTVDCSNQKLNKIPEHIPQYTAELRLNNNEFTVLEATGIFKKLPQLRKINFSNNKITDIEEGAFEGASGVNEILLTSNRLENVQHKMFKGLESLKTLMLRSNRITCVGNDSFIGLSSVRLLSLYDNQITTVAPGAFDTLHSLSTLNLLANPFNCNCYLAWLGEWLRKKRIVTGNPRCQKPYFLKEIPIQDVAIQDFTCDDGNDDNSCSPLSRCPTECTCLDTVVRCSNKGLKVLPKGIPRDVTELYLDGNQFTLVPKELSNYKHLTLIDLSNNRISTLSNQSFSNMTQLLTLILSYNRLRCIPPRTFDGLKSLRLLSLHGNDISVVPEGAFNDLSALSHLAIGANPLYCDCNMQWLSDWVKSEYKEPGIARCAGPGEMADKLLLTTPSKKFTCQGPVDVNILAKCNPCLSNPCKNDGTCNSDPVDFYRCTCPYGFKGQDCDVPIHACISNPCKHGGTCHLKEGEEDGFWCICADGFEGENCEVNVDDCEDNDCENNSTCVDGINNYTCLCPPEYTGELCEEKLDFCAQDLNPCQHDSKCILTPKGFKCDCTPGYVGEHCDIDFDDCQDNKCKNGAHCTDAVNGYTCICPEGYSGLFCEFSPPMVLPRTSPCDNFDCQNGAQCIVRINEPICQCLPGYQGEKCEKLVSVNFINKESYLQIPSAKVRPQTNITLQIATDEDSGILLYKGDKDHIAVELYRGRVRASYDTGSHPASAIYSVETINDGNFHIVELLALDQSLSLSVDGGNPKIITNLSKQSTLNFDSPLYVGGMPGKSNVASLRQAPGQNGTSFHGCIRNLYINSELQDFQKVPMQTGILPGCEPCHKKVCAHGTCQPSSQAGFTCECQEGWMGPLCDQRTNDPCLGNKCVHGTCLPINAFSYSCKCLEGHGGVLCDEEEDLFNPCQAIKCKHGKCRLSGLGQPYCECSSGYTGDSCDREISCRGERIRDYYQKQQGYAACQTTKKVSRLECRGGCAGGQCCGPLRSKRRKYSFECTDGSSFVDEVEKVVKCGCTRCVS
